Source: article PMC10547647
These are yes or no findings as the source states them, for the method shown. In cells and extracts the contact can be indirect. Here binding means that the protein was enriched with, or labelled near, the bait; the list need not be complete.

The chains behind the UniProt entries cited, without tags or fusion partners.
UniProt Q9GZP8: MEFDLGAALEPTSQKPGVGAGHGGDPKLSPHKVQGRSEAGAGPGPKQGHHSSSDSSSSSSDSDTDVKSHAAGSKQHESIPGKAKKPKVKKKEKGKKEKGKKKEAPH
UniProt P06748: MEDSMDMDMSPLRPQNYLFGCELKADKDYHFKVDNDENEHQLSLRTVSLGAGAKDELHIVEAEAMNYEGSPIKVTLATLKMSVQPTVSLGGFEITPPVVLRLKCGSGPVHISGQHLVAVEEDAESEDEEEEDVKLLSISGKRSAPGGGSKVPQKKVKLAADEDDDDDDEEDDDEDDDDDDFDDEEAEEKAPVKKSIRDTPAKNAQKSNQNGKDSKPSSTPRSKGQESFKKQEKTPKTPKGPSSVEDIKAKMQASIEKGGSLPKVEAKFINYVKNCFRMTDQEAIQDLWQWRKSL

Legend:
[1] = target: Immortalization-upregulated protein (IMUP), endogenous (human (endogenous in BxPC-3)) (UniProt Q9GZP8); assay: affinity purification with mass spectrometry; endogenous IMUP; IP with anti-IMUP agarose, SDS-PAGE, candidate bands cut and identified by LC/MS
[2] = target: GFP-tagged IMUP (immortalization-upregulated protein) (UniProt Q9GZP8); assay: affinity purification with mass spectrometry; GFP-tagged IMUP overexpressed; IP with GFP-Trap Magnetic Agarose, SDS-PAGE, candidate bands cut and identified by LC/MS

Nucleophosmin (NPM1), endogenous (from UniProt P06748 1-294)
binding [1]: binds
binding [2]: binds
